The numbers were not newly measured in paper PMC3933419, “Synthesis and Properties of a Selective Inhibitor of Homeodomain–Interacting Protein Kinase 2 (HIPK2)” (PLoS ONE, 2014), which cites them from elsewhere.

This data set concerns panel of 71 protein kinases. The note with it: 1 µM concentration, ref [9]; cited from earlier work.

Turning to `C[S+]([O-])c1ccc(-c2nc(-c3ccncc3)c(-c3ccc(F)cc3)[nH]2)cc1` (stereo not shown) [SB203580], the “average inhibition of the whole panel” value is recorded as 17.7%.
